Assay results: publication doi:10.1101/2024.05.17.594667
These are yes or no findings as the source states them, for the method shown. Binding seen in cells or lysates may run through a third protein. Binding calls can cover weak binding; strength is not graded here.

Molecular target: recombinant protein containing the Rho binding domain (RBD) of Rhotekin conjugated to GST (UniProt Q9BST9)
Experiment: pull-down

binding	Substance
binds	RhoB (from UniProt P62745 1-196)
binds	GFP-RhoC^R188S (from UniProt P08134 1-193)
binds	RhoA (from UniProt P61586 1-193)
binds	RhoC (from UniProt P08134 1-193)
binds	GFP-RhoC (from UniProt P08134 1-193)
binds	GFP-RhoC^R188A (from UniProt P08134 1-193)
